Measurements: patent US5231002A, “Synthetic SCM-active cancer recognition peptides” (priority 1990, dated 1993)
Several values for one entry are separate records, joined by “and”; a condition that tells them apart may be missing. Equal values may be shown once. Entries after “also recorded” stand apart in the source; their conditions may differ. At least one peptide structure holds a part that was inferred or is arguable (an end, a ring closure or a residue). Ends that are not written are not given here.

How the values were obtained:
[1] = test system: potentially SCM-responding lymphocytes from donors with malignant diseases; assay: SCM (structuredness of cytoplasmic matrix) test, fluorescence polarization of challenged lymphocytes; type: cell-based, human; settings: for SCM activity / response in the SCM test (in words): challenge of lymphocytes from donors with malignant disease
[2] = test system: lymphocytes from healthy donors; assay: SCM test on lymphocytes from healthy donors; type: cell-based, human; settings: healthy donors (2)
[3] = lymphocytes of blood donor with Ca-cervix uteri
[4] = lymphocytes of blood donor with Ca-larynx
[5] = lymphocytes of blood donor with Ca-maxillary antrum
[6] = lymphocytes of blood donor with Ca-mouth

FSWGAEGQR [Purified EAE, Phe-Ser-Trp-Gly-Ala-Glu-Gly-Gln-Arg, reference compound]
SCM activity / response in the SCM test (in words) [1]: no SCM activity; also recorded: no response
SCM activity / response in the SCM test (in words) ([1]; listed as Beckman EAE peptide further purified by anion-exchange chromatography): did not produce the expected response
SCM activity / response in the SCM test (in words) ([1]; listed as purer EAE): failed to produce the expected response
SCM-responses (as % of control) [1, 3]: 99.5 % of control
SCM-responses (as % of control) [1, 4]: 100.0 % of control
SCM-responses (as % of control) [1, 5]: 100.5 % of control
SCM-responses (as % of control) [1, 6]: 100.0 % of control
SCM-responses (as % of control) [2]: 100.5 % of control

FWGAEGQR [Peptide II, Phe-Trp-Gly-Ala-Glu-Gly-Gln-Arg]
SCM activity / response in the SCM test (in words) [1]: showed SCM activity; also recorded: positive response
SCM-responses (as % of control) [1, 3]: 79.0 % of control
SCM-responses (as % of control) [1, 4]: 79.0 % of control and 83.0 % of control
SCM-responses (as % of control) [1, 5]: 76.0 % of control
SCM-responses (as % of control) ([1]; lymphocytes of blood donor with Ca-retromolar): 81.0 % of control
SCM-responses (as % of control) ([1]; lymphocytes of blood donor with lung oat cell carcinoma): 80.6 % of control

FWGAGQR [Peptide I, Phe-Trp-Gly-Ala-Gly-Gln-Arg]
SCM activity / response in the SCM test (in words) [1]: showed SCM activity; also recorded: positive SCM response
SCM-responses (as % of control) [1, 3]: 82.0 % of control
SCM-responses (as % of control) [1, 4]: 84.2 % of control
SCM-responses (as % of control) [1, 6]: 86.0 % of control
